Measurements: article PMC12550018, “High-resolution native electrophoresis in-gel activity assay reveals biological insights of medium-chain fatty acyl-CoA dehydrogenase deficiency” (Scientific Reports, 2025)
Numbering of substitutions follows the chain as printed. Names and notes keep the numbering of the source. These are yes or no findings as the source states them, for the method shown. Some entries that bind do so weakly or less than the wild type.

Experiments:
[1] = target: Endogenous MCAD of human skin fibroblasts (human (endogenous in skin fibroblasts)) (UniProt P11310); assay: native gel or EMSA; hrCN-PAGE (5-16% gradient) of mitochondrial enriched fractions of human skin fibroblasts; lanes cut into 60 slices, trypsin digestion, LC-MS/MS migration profiles
[2] = target: MCAD wild type overexpressed in COS-7 cells (human) (UniProt P11310); assay: native gel or EMSA; hrCN-PAGE at pH 7.0 of lysates / mitochondrial fractions of transfected COS-7 cells; C8-CoA:NBT in-gel activity staining
[3] = target: MCAD variant K329E overexpressed in COS-7 cells (human) (UniProt P11310); assay: as above
[4] = target: MCAD variant R206C overexpressed in COS-7 cells (human) (UniProt P11310); assay: as above
[5] = target: MCAD variant Y67H overexpressed in COS-7 cells (human) (UniProt P11310); assay: as above

B1: Endogenous MCAD of human skin fibroblasts (enzyme, UniProt P11310-1 26-421)
chain: KANRQREPGLGFSFEFTEQQKEFQATARKFAREEIIPVAAEYDKTGEYPVPLIRRAWELGLMNTHIPENCGGLGLGTFDACLISEELAYGCTGVQTAIEGNSLGQMPIIIAGNDQQKKKYLGRMTEEPLMCAYCVTEPGAGSDVAGIKTKAEKKGDEYIINGQKMWITNGGKANWYFLLARSDPDPKAPANKAFTGFIVEADTPGIQIGRKELNMGQRCSDTRGIVFEDVKVPKENVLIGDGAGFKVAMGAFDKTRPVVAAGAVGLAQRALDEATKYALERKTFGKLLVEHQAISFMLAEMAMKVELARMSYQRAAWEVDSGRRNTYYASIAKAFAGDIANQLATDAVQILGGNGFNTEYPVEKLMRDAKIYQIYEGTSQIQRLIVAREHIDKYKN
[1]
  binding: binds

B2: MCAD wild type overexpressed in COS-7 cells (enzyme, UniProt P11310-1 26-421)
chain: B1 chain
[2]
  binding: binds

B3: MCAD variant p.K329E, human recombinant (enzyme, UniProt P11310-1 26-421, looked up)
chain: B1 chain with K304E
notes: MCAD, human, encoded by ACADM, clinically relevant variant p.K329E made by site-directed mutagenesis in pMALc2X; masses fit the mature protein (26-421); The residue number counts on the precursor; also called MCAD K329E; not shown: MBP, N-terminal, cleaved
[3]
  binding: binds

B4: MCAD variant p.R206C, human recombinant (enzyme, UniProt P11310-1 26-421, looked up)
chain: B1 chain with R181C
notes: MCAD, human, encoded by ACADM, clinically relevant variant p.R206C made by site-directed mutagenesis in pMALc2X; masses fit the mature protein (26-421); The residue number counts on the precursor; Native MS: only three FAD per tetramer; also called MCAD R206C; not shown: MBP, N-terminal, cleaved
[4]
  binding: binds

B5: MCAD variant p.Y67H, human recombinant (enzyme, UniProt P11310-1 26-421, looked up)
chain: B1 chain with Y42H
notes: MCAD, human, encoded by ACADM, clinically relevant variant p.Y67H made by site-directed mutagenesis in pMALc2X; masses fit the mature protein (26-421); The residue number counts on the precursor; also called MCAD Y67H; not shown: MBP, N-terminal, cleaved
[5]
  binding: binds
